# Tested on: guinea pig distal colon
# Assay: fecal pellet propulsion motility assay in isolated distal colon (GIMM)
# Conditions: intraluminal, after 20 minutes; extract 2 g/100 mL Krebs; granisetron 2 μM; GR-113808 5 μM
# Experimental: Gastrointestinal Motility Assays: Segments (˜10 cm long) of distal colon were pinned on either end in a Sylgard-lined 50 mL organ bath, continuously perfused with oxygenated Krebs solution (rate: 10 mL min^−1) and maintained at temperatures between 36 and 37° C. Tissues were initially allowed to equilibrate for 30 mins in re-circulating Krebs solution. Colonic motility was studied using the Gastronintestinal Motility Monitoring system (GIMM; Med-Associates Inc., Saint Albans, Vt., USA), which included a digital video camera (Catamount Research and Development Inc, St Albans, Vt., USA) to film fecal pellet propulsion. […] The GIMM system software calculated velocities by tracking pellets as they traversed colon segments. […] The effects of extract and test compounds were evaluated by obtaining velocities of four trials taken at 5-min intervals (5-20 min) Normalized velocity data for these treatments were obtained by dividing the test velocities acquired by the average velocity of the five pellet propulsion runs performed in vehicle solution (runs 1-5, above). […]
# A segment (˜10-12 cm long) of distal colon was pinned on either end in a Sylgard-lined 50 mL organ bath being continuously perfused with oxygenated Krebs solution (rate: 10 mL min^−1) and maintained at temperatures between 36-37° C. […] Baseline velocities were measured for 20 minutes. […]
compound,measurement,value
"CN1C2CCCC1CC(NC(=O)c1nn(C)c3ccccc13)C2.Cl (stereo not shown) [granisetron, granisetron hydrochloride]",inhibition of pellet propulsion,15%

# Reference: patent publication US20140348966A1, “GARCINIA BUCHANANII BAKER COMPOUNDS, COMPOSITIONS AND RELATED METHODS” (priority 2011, published 2014)
